Assay results reported in PMC10145973, “Genomic Insights into Bacterial Resistance to Proline-Rich Antimicrobial Peptide Bac7” (Membranes, 2023).
Converted amounts (≈) assume the structure as drawn.

Key:
Test in all cases: microbe, parasite or virus in culture
E. coli MDR 1057 WT = conditions: Escherichia coli, MDR1057WT, 24 h, read-out: Minimum Inhibitory Concentration, WT
E. coli MDR 1057 B2 = conditions: Escherichia coli, MDR1057B2, 24 h, read-out: Minimum Inhibitory Concentration, B2
E. coli MDR 1057 B3 = conditions: Escherichia coli, MDR1057B3, 24 h, read-out: Minimum Inhibitory Concentration, B3
E. coli MDR 1057 P1 = conditions: Escherichia coli, MDR1057P1, 24 h, read-out: Minimum Inhibitory Concentration, P1

CCC[C@@H]1C[C@@H](C(=O)N[C@@H]([C@H]2O[C@H](SC)[C@H](O)[C@@H](O)[C@H]2O)[C@H](C)Cl)N(C)C1 [Clindamycin]
MIC (E. coli MDR 1057 WT): 128 µM (≈ 54.4 µg/mL)
MIC (E. coli MDR 1057 B2): 256 µM (≈ 109 µg/mL)
MIC (E. coli MDR 1057 B3): 128 µM (≈ 54.4 µg/mL)
MIC (E. coli MDR 1057 P1): 256 µM (≈ 109 µg/mL)
